This is an account of results in PMC6065199.

Amino acid sequences for entries named in this document (tags omitted). A change or cut given only in a name is not applied to a line headed by its entry. Chains listed by the source or under a name are the forms on record and can include a tag or linker.
UniProt P49137: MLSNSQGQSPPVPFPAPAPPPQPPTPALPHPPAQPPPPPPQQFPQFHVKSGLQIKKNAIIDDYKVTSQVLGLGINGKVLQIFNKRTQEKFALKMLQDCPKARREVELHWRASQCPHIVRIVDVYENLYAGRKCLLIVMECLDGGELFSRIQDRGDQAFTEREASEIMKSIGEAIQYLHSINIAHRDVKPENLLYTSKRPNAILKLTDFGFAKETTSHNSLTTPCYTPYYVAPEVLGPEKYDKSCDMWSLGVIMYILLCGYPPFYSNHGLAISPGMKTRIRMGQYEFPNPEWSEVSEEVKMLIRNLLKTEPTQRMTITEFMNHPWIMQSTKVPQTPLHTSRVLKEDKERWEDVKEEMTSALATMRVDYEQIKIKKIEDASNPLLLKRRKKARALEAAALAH
UniProt P70372: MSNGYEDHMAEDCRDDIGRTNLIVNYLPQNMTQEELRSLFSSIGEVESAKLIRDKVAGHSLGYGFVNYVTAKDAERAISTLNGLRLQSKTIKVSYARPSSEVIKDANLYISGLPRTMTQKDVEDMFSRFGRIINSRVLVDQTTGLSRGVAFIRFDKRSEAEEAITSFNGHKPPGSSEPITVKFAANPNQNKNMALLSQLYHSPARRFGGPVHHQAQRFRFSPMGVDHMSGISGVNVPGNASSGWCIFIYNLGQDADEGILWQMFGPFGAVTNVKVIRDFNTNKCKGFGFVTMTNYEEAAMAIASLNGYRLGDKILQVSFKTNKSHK
heterogeneous nuclear ribonucleoproteins C1/C2 isoform b (P07910-2, form named): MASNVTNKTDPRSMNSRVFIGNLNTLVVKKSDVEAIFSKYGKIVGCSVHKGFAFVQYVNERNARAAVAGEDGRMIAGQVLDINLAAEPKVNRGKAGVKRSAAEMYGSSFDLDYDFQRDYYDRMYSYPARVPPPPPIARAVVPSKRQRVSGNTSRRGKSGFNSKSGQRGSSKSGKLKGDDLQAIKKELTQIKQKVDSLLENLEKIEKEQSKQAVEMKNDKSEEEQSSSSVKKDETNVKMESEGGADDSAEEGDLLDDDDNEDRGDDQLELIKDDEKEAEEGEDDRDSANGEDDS
UniProt Q9Z204: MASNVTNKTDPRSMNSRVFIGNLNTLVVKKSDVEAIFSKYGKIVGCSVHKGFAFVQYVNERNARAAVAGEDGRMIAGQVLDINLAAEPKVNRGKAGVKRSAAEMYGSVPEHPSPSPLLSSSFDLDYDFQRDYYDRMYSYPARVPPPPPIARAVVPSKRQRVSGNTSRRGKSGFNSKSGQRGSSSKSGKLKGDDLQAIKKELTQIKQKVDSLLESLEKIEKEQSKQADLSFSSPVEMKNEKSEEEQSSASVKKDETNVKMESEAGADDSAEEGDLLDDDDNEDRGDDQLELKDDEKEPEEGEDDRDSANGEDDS

Assay [1] concerns the target heterogeneous nuclear ribonucleoprotein K (human (endogenous in primary human T cells)) (UniProt P61978). Kind of assay: co-IP; primary human T cells adhered to pLL- or ICAM-1-coated plates for 30 min, lysed; hnRNPH1 or hnRNPK IP, HuR blot.
The target of assay [2] is mitogen-activated protein kinase-activated protein kinase 2 (human (endogenous in Jurkat)) (UniProt P49137). Kind of assay: co-IP; Jurkat T cell lysates in IP buffer (25 mM HEPES pH 8.0, 150 mM KCl, 2.5 mM EDTA, 0.1% NP40); IP with HuR, hnRNPC or MK2 antibody overnight at 4°C, protein A/G agarose, Western blot; cells adhered to pLL or ICAM-1 for 0, 30 or 60 min; in some samples lysate treated with RNase A 30 min 37°C, or cells transfected with control, hnRNPH1 or hnRNPK siRNA.

Assay [3] addresses HuR (mouse) (mouse (endogenous in primary murine T cells)) (UniProt P70372). Kind of assay: co-IP; WT or MK2-/- primary murine T cells adhered to pLL- or ICAM-1-coated plates for 45 min, lysed; HuR IP, hnRNPC blot.

These are yes or no findings as the source states them, for the method shown. In cells and extracts the contact can be indirect. Some binding calls cover weakened binding; strength is not graded here.

Regarding “Hu protein R (HuR RNA binding protein) (from UniProt Q15717 1-326)”, the binding entry in assay [1] and in assay [2] was “binds” each time. Regarding “heterogeneous nuclear ribonucleoproteins C1/C2 isoform b (from UniProt P07910-2 1-293)”, the binding entry in assay [2] is on record as “binds”. In the case of “hnRNPC (mouse) (from UniProt Q9Z204 1-313)”, the binding result in assay [3] is “binds”.
